One assay addresses T1, GFP-VIPAS39 (human) (UniProt Q9H9C1).
T1 sequence: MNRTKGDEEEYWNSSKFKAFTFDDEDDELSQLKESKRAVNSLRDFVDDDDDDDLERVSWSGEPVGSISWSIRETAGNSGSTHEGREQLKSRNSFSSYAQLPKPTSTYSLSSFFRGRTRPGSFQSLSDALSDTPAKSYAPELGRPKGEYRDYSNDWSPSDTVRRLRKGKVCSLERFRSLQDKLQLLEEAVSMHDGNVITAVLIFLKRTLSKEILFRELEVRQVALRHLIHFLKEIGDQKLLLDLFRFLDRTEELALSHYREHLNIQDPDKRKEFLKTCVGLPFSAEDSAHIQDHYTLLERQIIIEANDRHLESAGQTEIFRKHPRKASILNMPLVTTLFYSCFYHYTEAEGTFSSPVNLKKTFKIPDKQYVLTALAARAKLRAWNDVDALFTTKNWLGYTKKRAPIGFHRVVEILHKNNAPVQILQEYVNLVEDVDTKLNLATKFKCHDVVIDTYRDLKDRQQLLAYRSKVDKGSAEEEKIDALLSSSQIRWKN
Briefly: co-IP.

The target in another assay is T2, GFP-Rabenosyn-5 (human) (UniProt Q9H1K0).
T2 sequence: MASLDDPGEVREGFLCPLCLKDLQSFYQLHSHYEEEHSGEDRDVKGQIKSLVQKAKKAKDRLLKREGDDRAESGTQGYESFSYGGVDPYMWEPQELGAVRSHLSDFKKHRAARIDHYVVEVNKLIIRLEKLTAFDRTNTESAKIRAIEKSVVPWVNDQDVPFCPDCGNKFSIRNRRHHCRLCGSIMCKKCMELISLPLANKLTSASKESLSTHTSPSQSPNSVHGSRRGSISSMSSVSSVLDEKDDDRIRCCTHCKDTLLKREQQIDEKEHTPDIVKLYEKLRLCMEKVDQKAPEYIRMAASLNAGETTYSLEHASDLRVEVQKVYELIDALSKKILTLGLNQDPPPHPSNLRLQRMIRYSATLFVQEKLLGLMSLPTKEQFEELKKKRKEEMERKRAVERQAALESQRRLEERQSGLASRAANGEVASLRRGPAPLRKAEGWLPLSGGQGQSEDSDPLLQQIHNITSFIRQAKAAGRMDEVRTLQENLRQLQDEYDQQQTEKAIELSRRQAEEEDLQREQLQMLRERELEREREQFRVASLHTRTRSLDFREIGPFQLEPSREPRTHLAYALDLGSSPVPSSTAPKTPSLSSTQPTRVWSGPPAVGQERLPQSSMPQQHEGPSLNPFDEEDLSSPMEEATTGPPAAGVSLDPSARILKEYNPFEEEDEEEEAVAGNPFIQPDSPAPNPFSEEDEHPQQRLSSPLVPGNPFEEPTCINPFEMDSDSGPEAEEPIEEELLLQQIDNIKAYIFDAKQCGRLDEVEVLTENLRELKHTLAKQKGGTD
Briefly: co-IP.

In another assay the target is T3, SPE-39-GST (C. elegans) (UniProt Q23288).
T3 sequence: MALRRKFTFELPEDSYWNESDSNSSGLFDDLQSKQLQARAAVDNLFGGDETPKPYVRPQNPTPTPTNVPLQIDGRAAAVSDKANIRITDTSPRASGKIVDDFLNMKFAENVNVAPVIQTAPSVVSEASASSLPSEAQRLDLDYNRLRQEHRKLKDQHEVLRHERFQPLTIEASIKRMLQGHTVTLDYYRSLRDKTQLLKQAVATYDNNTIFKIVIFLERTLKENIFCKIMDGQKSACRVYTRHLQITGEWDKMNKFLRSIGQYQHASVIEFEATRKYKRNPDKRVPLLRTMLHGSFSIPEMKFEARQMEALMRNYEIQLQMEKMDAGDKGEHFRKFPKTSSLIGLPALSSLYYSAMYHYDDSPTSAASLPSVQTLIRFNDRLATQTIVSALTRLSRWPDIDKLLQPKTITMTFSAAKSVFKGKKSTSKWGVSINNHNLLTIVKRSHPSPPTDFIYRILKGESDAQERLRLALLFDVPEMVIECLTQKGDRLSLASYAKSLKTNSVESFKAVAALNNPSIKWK
Briefly: pull-down.

No constants are given. Whether binding was seen depends on the method and setting. Binding seen in cells or lysates may run through a third protein. Some results given as binding are weak or reduced against the parent protein; the word gives no strength. Tags and fused reporters may be left off the sequences shown.

B1: myc-Rabenosyn-5 (protein, UniProt Q9H1K0 1-784)
chain: T2 sequence
Take B1: the binding entry with GFP-VIPAS39 (human) is on record as “binds”.

B2: myc-EHD1 (protein, UniProt Q9H4M9 1-534)
chain: MFSWVSKDARRKKEPELFQTVAEGLRQLYAQKLLPLEEHYRFHEFHSPALEDADFDNKPMVLLVGQYSTGKTTFIRHLIEQDFPGMRIGPEPTTDSFIAVMHGPTEGVVPGNALVVDPRRPFRKLNAFGNAFLNRFMCAQLPNPVLDSISIIDTPGILSGEKQRISRGYDFAAVLEWFAERVDRIILLFDAHKLDISDEFSEVIKALKNHEDKIRVVLNKADQIETQQLMRVYGALMWSLGKIINTPEVVRVYIGSFWSHPLLIPDNRKLFEAEEQDLFKDIQSLPRNAALRKLNDLIKRARLAKVHAYIISSLKKEMPNVFGKESKKKELVNNLGEIYQKIEREHQISPGDFPSLRKMQELLQTQDFSKFQALKPKLLDTVDDMLANDIARLMVMVRQEESLMPSQVVKGGAFDGTMNGPFGHGYGEGAGEGIDDVEWVVGKDKPTYDEIFYTLSPVNGKITGANAKKEMVKSKLPNTVLGKIWKLADVDKDGLLDDEEFALANHLIKVKLEGHELPADLPPHLVPPSKRRHE
For the molecule B2, the binding result with GFP-Rabenosyn-5 (human) was “binds”.

B3: VPS-33.2 (protein, UniProt Q18891 1-617)
chain: MAPGTAELEIDETLHLLRMVMQREFIHYLETLPGTKELFIDKCLLRPLDMIATSSDMKRHGVKRIMHFDLQKSPQVWNIEIDQRVFFLRPNVENARKIVEYVEESSENRSICVIWCNRQLEECDLAFESSGVIGHITQLSLNMCLLPLESDLFSLQHVESAQPDLFSVANMFVALQNLYGVIPTVYGLGSESKNLWNLVHALCSSNELRARPDQPISHLFLFDRQLDPVPVLLTGASYEGLLHEFFTIDCGKLAFPVDLRKQVQTGPLDFDWIEINPEEDKEAHQQNRGDTVKLDNCEDIFASIRNKHVTAALEFLHSKAKSIQKSIEKSSMIDDVADYRNFVEKDLRALKKDHKHCELHINACEMMMNKVKMEDYRTMFKLEHEMLLGTVTHEEYFDFVFERVPMRSCRDVVLSMMSLASLKLDGVPDDTYNEFVEMYLQKYGYEHMFELQNLRNSRVIYARRHIAHDRTISERARTWETLARKFRIVKGNEPMDMSNPSDMSYVFGARISPLLCKIVEDTIDHGWNQAEYERIIGKDKVLVEENTYIAADRRPDNRTRKAIMVFVNGGITYWEVAALRLLAIQKNFRILICTTHVIKKREYLEVRAKDASSVFGS
For B3, the binding entry with SPE-39-GST (C. elegans) is given as “binds”.

B4: myc-VIPAS39 (protein, UniProt Q9H9C1 1-493)
chain: T1 sequence
Turning to B4, the binding entry with GFP-Rabenosyn-5 (human) is “binds”.

B5: myc-Rab11FIP5 (protein, UniProt Q9BXF6 1-653)
chain: MALVRGAEPAAGPSRWLPTHVQVTVLRARGLRGKSSGAGSTSDAYTVIQVGREKYSTSVVEKTHGCPEWREECSFELPPGALDGLLRAQEADAGPAPWAASSAAACELVLTTMHRSLIGVDKFLGQATVALDEVFGAGRAQHTQWYKLHSKPGKKEKERGEIEVTIQFTRNNLSASMFDLSMKDKPRSPFSKIRDKMKGKKKYDLESASAILPSSAIEDPDLGSLGKMGKAKGFFLRNKLRKSSLTQSNTSLGSDSTLSSASGSLAYQGPGAELLTRSPSRSSWLSTEGGRDSAQSPKLFTHKRTYSDEANQMRVAPPRALLDLQGHLDAASRSSLCVNGSHIYNEEPQGPVRHRSSISGSLPSSGSLQAVSSRFSEEGPRSTDDTWPRGSRSNSSSEAVLGQEELSAQAKVLAPGASHPGEEEGARLPEGKPVQVATPIVASSEAVAEKEGARKEERKPRMGLFHHHHQGLSRSELGRRSSLGEKGGPILGASPHHSSSGEEKAKSSWFGLREAKDPTQKPSPHPVKPLSAAPVEGSPDRKQSRSSLSIALSSGLEKLKTVTSGSIQPVTQAPQAGQMVDTKRLKDSAVLDQSAKYYHLTHDELISLLLQRERELSQRDEHVQELESYIDRLLVRIMETSPTLLQIPPGPPK
As for B5, the binding entry with GFP-Rabenosyn-5 (human) is recorded as “binds”.

B6: VPS-33.1 (protein, UniProt P34260 1-603)
chain: MAANEDRDDAAAILNWEGTSEIKSANEYSRNLLFSVLDSLDGNKTIVWDRDRSVMHRVNLFAGASVLAAHGVVANHSIETKKSASTPHVVFFLAPTMVSLDLLCDYIDNVRNDSKILYQVFFIPEAWFVVRESLKTRAEGKYWERLESVKEIPLCWLPRDGECLSLSSPQIAARLLINGDWTHLHKCAVALNQLIDMCRGRSSSSNQRPMSIYAKGKWASDVAKMMGKIRNSAEADSMTKNLDPIEGLLKINRIVLIDRWMDPLTPMLSQLTFYGLLDEIYGIGMVNSVKVPEMEFKNEKDGDPFQEKEVYLIDEVYHRLKHSHINAVSIEASKVLAEIRDDEQFDRDKMSVAEYSVLVKKMPKIINRKKMIEVHMRLAEMIQSHVYCKQSDSIKLERDLLEYSDSDKAIPLIEDLIFDASPLNAVLRLISVHSLTCGGLKPSVLQHYRRIVNQSYGSSALNKVLKMQKMGLIREKGGGGKMQCEYAQMMFQQMKKNHDMLPEEFSEAKLDDMAYAYSGFSPLLCKMLEEGDRVKWVGWPKTVIGDKSDLIAERDGRGTCVFVIGGLTRSELAIIRENLPNVALITTSALITGDKLLNNITNI
On to B6, for which the binding result in the assay with SPE-39-GST (C. elegans) is given as “no binding”.

B7: myc-VPS45 (protein, UniProt Q9NRW7 1-570)
chain: MNVVFAVKQYISKMIEDSGPGMKVLLMDKETTGIVSMVYTQSEILQKEVYLFERIDSQNREIMKHLKAICFLRPTKENVDYIIQELRRPKYTIYFIYFSNVISKSDVKSLAEADEQEVVAEVQEFYGDYIAVNPHLFSLNILGCCQGRNWDPAQLSRTTQGLTALLLSLKKCPMIRYQLSSEAAKRLAECVKQVITKEYELFEFRRTEVPPLLLILDRCDDAITPLLNQWTYQAMVHELLGINNNRIDLSRVPGISKDLREVVLSAENDEFYANNMYLNFAEIGSNIKNLMEDFQKKKPKEQQKLESIADMKAFVENYPQFKKMSGTVSKHVTVVGELSRLVSERNLLEVSEVEQELACQNDHSSALQNIKRLLQNPKVTEFDAARLVMLYALHYERHSSNSLPGLMMDLRNKGVSEKYRKLVSAVVEYGGKRVRGSDLFSPKDAVAITKQFLKGLKGVENVYTQHQPFLHETLDHLIKGRLKENLYPYLGPSTLRDRPQDIIVFVIGGATYEEALTVYNLNRTTPGVRIVLGGTTVHNTKSFLEEVLASGLHSRSKESSQVTSRSASRR
For the molecule B7, the binding entry in the assay with GFP-Rabenosyn-5 (human) and in the assay with GFP-VIPAS39 (human) was “binds” each time.

The values above are taken from paper doi:10.1101/500082.
